# Test results reported in PMC7926352, “Synthesis, Characterization and In Vitro Evaluation of Novel 5-Ene-thiazolo[3,2-b][1,2,4]triazole-6(5H)-ones as Possible Anticancer Agents” (Molecules, 2021).
# What was measured:
# HOP-62 = details: HOP-62, NSCLC
# MDA-MB-435 = details: MDA-MB-435, Breast Cancer
# ACHN = details: Renal Cancer
# U251 = details: U251, CNS Cancer
# UACC-62 = details: UACC-62, Melanoma
# HCC-2998 = details: HCC-2998, Colon cancer
# SK-OV-3 = details: SK-OV-3, Ovarian Cancer
# [1] = test system: Prostate Cancer cell lines; details: Prostate Cancer subpanel
# OVCAR-5 = details: OVCAR-5, Ovarian Cancer
# RXF 393 = details: RXF 393, Renal Cancer
# 786-0 = details: 786-0, Renal Cancer
# SF-539 = details: SF-539, CNS Cancer
# MALME-3M = details: Melanoma
# M14 = details: M14, Melanoma
# T-47D = type: cell-based; details: Breast Cancer
# NCI-H226 = type: cell-based; details: NCI-H226, NSCLC
# SN12C = details: Renal Cancer
# PC-3 = details: PC-3, Prostate Cancer
# K-562 = details: K-562, Leukemia
# COLO 205 = type: cell-based; details: COLO 205, Colon cancer
# HT29 = details: HT29, Colon cancer
# MDA-MB-231/ATCC = details: Breast Cancer
# HL-60 (TB) = details: Leukemia
# KM12 = details: KM12, Colon cancer
# HOP-92 = details: HOP-92, NSCLC
# LOX IMVI = details: Melanoma
# OVCAR-8 = details: OVCAR-8, Ovarian Cancer
# DU-145 = details: DU-145, Prostate Cancer
# UACC-257 = details: UACC-257, Melanoma
# A498 = details: A498, Renal Cancer
smiles,measurement,setting,value
"O=C(COc1ccc(Cl)cc1/C=c1\sc2ncnn2c1=O)Nc1ccc(Cl)cc1 [Compound 2h, (Z)-2-(4-Chloro-2-((6-oxothiazolo[3,2-b][1,2,4]triazol-5(6H)-ylidene)methyl)phenoxy)-N-(4-chlorophenyl)acetamide]",SI (GI50),HOP-62,0.76
same,SI (LC50),HOP-62,0.87
same,SI (TGI),HOP-62,0.78
same,SI (GI50),MDA-MB-435,1.20
same,SI (LC50),MDA-MB-435,1.29
same,SI (TGI),MDA-MB-435,1.02
same,SI (GI50),ACHN,0.28
same,SI (LC50),ACHN,0.74
same,SI (TGI),ACHN,0.51
same,SI (GI50),U251,0.87
same,SI (LC50),U251,0.97
same,SI (TGI),U251,0.89
same,SI (GI50),UACC-62,1.32
same,SI (LC50),UACC-62,0.97
same,SI (TGI),UACC-62,0.87
same,SI (GI50),HCC-2998,0.50
same,SI (LC50),HCC-2998,0.85
same,SI (TGI),HCC-2998,0.69
same,SI (GI50),SK-OV-3,0.29
same,SI (LC50),SK-OV-3,0.69
same,SI (TGI),SK-OV-3,0.45
same,SI (GI50),[1],1.33
same,SI (LC50),[1],1.21
same,SI (TGI),[1],1.25
same,SI (GI50),OVCAR-5,0.32
same,SI (LC50),OVCAR-5,0.77
same,SI (TGI),OVCAR-5,0.55
same,SI (GI50),RXF 393,1.86
same,SI (LC50),RXF 393,1.02
same,SI (TGI),RXF 393,1.51
same,SI (GI50),786-0,0.85
same,SI (LC50),786-0,0.93
same,SI (TGI),786-0,0.81
same,SI (GI50),SF-539,2.00
same,SI (LC50),SF-539,2.95
same,SI (TGI),SF-539,2.88
same,SI (GI50),MALME-3M,0.45
same,SI (LC50),MALME-3M,0.81
same,SI (TGI),MALME-3M,0.62
same,SI (GI50),M14,0.43
same,SI (LC50),M14,0.81
same,SI (TGI),M14,0.62
same,SI (GI50),T-47D,0.46
same,SI (LC50),T-47D,1.29
same,SI (TGI),T-47D,0.50
same,SI (GI50),NCI-H226,1.15
same,SI (LC50),NCI-H226,0.83
same,SI (TGI),NCI-H226,0.74
same,SI (GI50),SN12C,2.18
same,SI (LC50),SN12C,0.89
same,SI (TGI),SN12C,1.00
same,SI (GI50),PC-3,0.93
same,SI (LC50),PC-3,0.81
same,SI (TGI),PC-3,0.79
same,SI (GI50),K-562,1.41
same,SI (LC50),K-562,0.76
same,SI (TGI),K-562,0.92
same,SI (GI50),COLO 205,0.47
same,SI (LC50),COLO 205,0.83
same,SI (TGI),COLO 205,0.65
same,SI (GI50),HT29,0.76
same,SI (LC50),HT29,0.95
same,SI (TGI),HT29,0.85
same,SI (LC50),MDA-MB-231/ATCC,0.49
same,SI (TGI),MDA-MB-231/ATCC,1.12
same,SI (GI50),HL-60 (TB),1.32
same,SI (LC50),HL-60 (TB),1.00
same,SI (TGI),HL-60 (TB),1.35
same,SI (GI50),KM12,1.44
same,SI (LC50),KM12,1.12
same,SI (TGI),KM12,1.18
same,SI (GI50),HOP-92,1.55
same,SI (LC50),HOP-92,1.07
same,SI (TGI),HOP-92,1.09
same,SI (GI50),LOX IMVI,1.35
same,SI (LC50),LOX IMVI,1.12
same,SI (TGI),LOX IMVI,1.15
same,SI (GI50),OVCAR-8,1.12
same,SI (LC50),OVCAR-8,0.89
same,SI (TGI),OVCAR-8,1.00
same,SI (GI50),DU-145,2.30
same,SI (LC50),DU-145,2.34
same,SI (TGI),DU-145,2.89
same,SI (GI50),UACC-257,1.05
same,SI (LC50),UACC-257,0.95
same,SI (TGI),UACC-257,0.85
same,SI (GI50),A498,0.34
same,SI (LC50),A498,0.79
